This is an account of results in patent publication US20240076315A1, “KHL POLYPEPTIDE, AND USE THEREOF IN PREPARATION OF TABP-EIC CELL” (priority 2021, published 2024).

Amino acid sequences for entries named in this document (tags omitted). Residues count along the entry.
UniProt Q04609, residues 44-750: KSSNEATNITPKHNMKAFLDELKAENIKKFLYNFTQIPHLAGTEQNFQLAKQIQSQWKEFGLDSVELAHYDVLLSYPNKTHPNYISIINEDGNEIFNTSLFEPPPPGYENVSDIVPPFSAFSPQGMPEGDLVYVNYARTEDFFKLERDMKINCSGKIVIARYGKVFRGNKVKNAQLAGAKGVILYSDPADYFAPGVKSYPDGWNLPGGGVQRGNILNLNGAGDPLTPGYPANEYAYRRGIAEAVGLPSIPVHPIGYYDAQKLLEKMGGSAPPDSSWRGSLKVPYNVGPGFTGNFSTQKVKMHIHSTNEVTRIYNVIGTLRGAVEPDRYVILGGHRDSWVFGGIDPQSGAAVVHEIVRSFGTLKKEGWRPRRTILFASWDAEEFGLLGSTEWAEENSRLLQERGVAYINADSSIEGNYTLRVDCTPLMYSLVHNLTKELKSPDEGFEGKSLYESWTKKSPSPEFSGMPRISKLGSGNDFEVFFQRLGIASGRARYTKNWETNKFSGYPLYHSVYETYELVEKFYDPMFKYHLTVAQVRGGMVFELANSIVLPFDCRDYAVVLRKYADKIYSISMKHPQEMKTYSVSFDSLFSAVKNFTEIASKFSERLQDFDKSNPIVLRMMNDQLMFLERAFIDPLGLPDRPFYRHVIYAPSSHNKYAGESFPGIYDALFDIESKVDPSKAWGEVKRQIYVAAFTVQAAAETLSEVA

These are yes or no findings as the source states them, for the method shown. Some results given as binding are weak or reduced against the parent protein; the word gives no strength.

The test addresses PSMA (Prostate Specific Membrane Antigen) (UniProt Q04609). Kind of test: phage display panning, Ph.D.-12 peptide library, three rounds on coated target.

B1: peptide KHL (peptide)
peptide: KHLHYHSSVRYG
As for B1, the binding result is “binds”.
